Laboratory results: patent publication US20130252972A1, “ISOXAZOLE, ISOTHIAZOLE, FURANE AND THIOPHENE COMPOUNDS AS MICROBICIDES” (SYNGENTA CROP PROTECTION LLC, priority 2010, published 2013)
Some results were stated once for a whole list of compounds, not compound by compound.

Experiments:
Puccinia recondita = Puccinia recondita (Brown rust) preventive fungicidal activity on wheat leaf segments; format: in vivo; details: 200 ppm, assessed 8 dpi
Septoria tritici = Septoria tritici (leaf blotch) growth inhibition in nutrient broth, microtiter plate; format: cell-based; details: 200 ppm; inhibition of growth determined photometrically after 72 hrs at 24 C
Botrytis cinerea = Botrytis cinerea (Gray mould) growth inhibition in nutrient broth, microtiter plate; format: cell-based; details: 200 ppm; inhibition of growth determined photometrically after 72 hrs at 24° C.

CC(O)(c1cccnc1)c1c(-c2ccc(Cl)cc2F)noc1-c1ccc(F)cc1F (stereo not drawn) [Compound T1.20, 1-[3-(4-chloro-2-fluoro-phenyl)-5-(2,4-difluoro-phenyl)-isoxazol-4-yl]-1-pyridin-3-yl-ethanol]
at least 80%: control of Puccinia recondita (Puccinia recondita) | control of Septoria tritici (Septoria tritici) | control of Botrytis cinerea (Botrytis cinerea)

CC(O)(c1cccnc1)c1c(-c2ccc(Cl)cc2)nsc1-c1ccccc1 (stereo not drawn) [Compound T2.1, 1-[3-(4-chloro-phenyl)-5-phenyl-isothiazol-4-yl]-1-pyridin-3-yl-ethanol]
at least 80%: control of Puccinia recondita (Puccinia recondita) | control of Septoria tritici (Septoria tritici) | control of Botrytis cinerea (Botrytis cinerea)
